Results from paper PMC11235169 (2024).
No constants are given. Whether binding was seen depends on the method and setting. Binding seen in cells or lysates may run through a third protein. Here binding means that the protein was enriched with, or labelled near, the bait; the list need not be complete. Sequences can lack the tags named with a protein.

Sequences of proteins named here, by UniProt entry; tags and fusion partners are left off.
UniProt Q50H33: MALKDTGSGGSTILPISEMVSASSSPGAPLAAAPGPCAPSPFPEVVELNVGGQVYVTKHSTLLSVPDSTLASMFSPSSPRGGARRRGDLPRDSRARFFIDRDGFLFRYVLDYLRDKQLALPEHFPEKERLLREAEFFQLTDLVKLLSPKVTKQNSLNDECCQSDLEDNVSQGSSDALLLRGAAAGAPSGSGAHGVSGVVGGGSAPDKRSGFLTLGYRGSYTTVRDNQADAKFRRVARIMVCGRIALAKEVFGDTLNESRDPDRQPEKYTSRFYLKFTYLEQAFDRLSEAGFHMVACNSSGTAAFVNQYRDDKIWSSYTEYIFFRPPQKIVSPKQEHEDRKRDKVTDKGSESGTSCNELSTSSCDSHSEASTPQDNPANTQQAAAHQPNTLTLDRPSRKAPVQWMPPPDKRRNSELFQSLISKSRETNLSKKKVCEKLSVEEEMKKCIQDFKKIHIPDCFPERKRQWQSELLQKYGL
UniProt Q6WVG3: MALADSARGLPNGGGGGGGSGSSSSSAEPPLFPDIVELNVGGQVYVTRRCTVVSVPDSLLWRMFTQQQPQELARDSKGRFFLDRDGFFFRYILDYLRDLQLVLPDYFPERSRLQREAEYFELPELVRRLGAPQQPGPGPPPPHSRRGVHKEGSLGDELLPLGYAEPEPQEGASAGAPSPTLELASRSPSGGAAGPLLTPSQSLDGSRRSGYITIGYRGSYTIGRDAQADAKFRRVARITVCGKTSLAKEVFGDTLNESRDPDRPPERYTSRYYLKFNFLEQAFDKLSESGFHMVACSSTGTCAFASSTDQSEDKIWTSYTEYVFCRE
UniProt Q5DTY9: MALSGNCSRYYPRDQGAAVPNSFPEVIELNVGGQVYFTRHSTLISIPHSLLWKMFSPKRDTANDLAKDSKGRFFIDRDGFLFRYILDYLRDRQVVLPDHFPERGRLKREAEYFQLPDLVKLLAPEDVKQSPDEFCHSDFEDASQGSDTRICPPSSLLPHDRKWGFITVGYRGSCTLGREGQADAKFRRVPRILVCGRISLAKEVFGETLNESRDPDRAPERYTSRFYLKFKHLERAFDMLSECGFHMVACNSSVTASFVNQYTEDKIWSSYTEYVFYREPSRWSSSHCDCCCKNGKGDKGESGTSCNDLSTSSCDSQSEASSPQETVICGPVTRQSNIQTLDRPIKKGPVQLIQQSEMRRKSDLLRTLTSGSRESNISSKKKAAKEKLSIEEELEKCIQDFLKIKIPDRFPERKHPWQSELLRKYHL

T1: AJAP1-HA (native, from Ajap1^HA/HA knock-in mice) (mouse (endogenous in brain)) (UniProt A2ALI5)
T1 sequence: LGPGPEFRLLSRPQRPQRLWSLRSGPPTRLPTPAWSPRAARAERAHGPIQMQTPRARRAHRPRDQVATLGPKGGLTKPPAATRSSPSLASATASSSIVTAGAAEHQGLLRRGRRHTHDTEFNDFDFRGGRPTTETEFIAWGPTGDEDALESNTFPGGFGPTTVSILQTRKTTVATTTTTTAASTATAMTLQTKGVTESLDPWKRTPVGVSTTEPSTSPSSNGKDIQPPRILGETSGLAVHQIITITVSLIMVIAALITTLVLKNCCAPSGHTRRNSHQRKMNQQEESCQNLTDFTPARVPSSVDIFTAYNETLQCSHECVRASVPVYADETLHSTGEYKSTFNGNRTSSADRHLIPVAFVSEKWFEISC


These molecules were tested against T1, AJAP1-HA (native, from Ajap1^HA/HA knock-in mice) (mouse (endogenous in brain)) (assay: affinity purification with mass spectrometry; membrane fractions of Ajap1^HA/HA and WT mouse brains solubilised in CL-91; two immobilised anti-HA antibodies; label-free quantification against WT control).

Row | Molecule | binding
1 | KCTD8 (from UniProt Q50H33 1-476) | binds
2 | KCTD12 (from UniProt Q6WVG3 1-327) | binds
3 | KCTD16 (from UniProt Q5DTY9 1-427) | binds
4 | GB2 (receptor, UniProt Q80T41 41-940) WARGAPRPPPSSPPLSIMGLMPLTKEVAKGSIGRGVLPAVELAIEQIRNESLLRPYFLDLRLYDTECDNAKGLKAFYDAIKYGPNHLMVFGGVCPSVTSIIAESLQGWNLVQLSFAATTPVLADKKKYPYFFRTVPSDNAVNPAILKLLKHFRWRRVGTLTQDVQRFSEVRNDLTGVLYGEDIEISDTESFSNDPCTSVKKLKGNDVRIILGQFDQNMAAKVFCCAFEESMFGSKYQWIIPGWYEPAWWEQVHVEANSSRCLRRSLLAAMEGYIGVDFEPLSSKQIKTISGKTPQQYEREYNSKRSGVGPSKFHGYAYDGIWVIAKTLQRAMETLHASSRHQRIQDFNYTDHTLGRIILNAMNETNFFGVTGQVVFRNGERMGTIKFTQFQDSREVKVGEYNAVADTLEIINDTIRFQGSEPPKDKTIILEQLRKISLPLYSILSALTILGMIMASAFLFFNIKNRNQKLIKMSSPYMNNLIILGGMLSYASIFLFGLDGSFVSEKTFETLCTVRTWILTVGYTTAFGAMFAKTWRVHAIFKNVKMKKKIIKDQKLLVIVGGMLLIDLCILICWQAVDPLRRTVERYSMEPDPAGRDISIRPLLEHCENTHMTIWLGIVYAYKGLLMLFGCFLAWETRNVSIPALNDSKYIGMSVYNVGIMCIIGAAVSFLTRDQPNVQFCIVALVIIFCSTITLCLVFVPKLITLRTNPDAATQNRRFQFTQNQKKEDSKTSTSVTSVNQASTSRLEGLQSENHRLRMKITELDKDLEEVTMQLQDTPEKTTYIKQNHYQELNDILSLGNFTESTDGGKAILKNHLDQNPQLQWNTTEPSRTCKDPIEDINSPEHIQRRLSLQLPILHHAYLPSIGGVDASCVSPCVSPTASPRHRHVPPSFRVMVSGL | binds
5 | gephyrin (native, mouse brain) (protein, UniProt Q8BUV3 1-769) MATEGMILTNHDHQIRVGVLTVSDSCFRNLAEDRSGINLKDLVQDPSLLGGTISAYKIVPDEIEEIKETLIDWCDEKELNLILTTGGTGFAPRDVTPEATKEVIEREAPGMALAMLMGSLNVTPLGMLSRPVCGIRGKTLIINLPGSKKGSQECFQFILPALPHAIDLLRDAIVKVKEVHDELEDLPSPPPPLSPPPTTSPHKQTEDKGVQCEEEEEEKKDSGVASTEDSSSSHITAAALAAKIPDSIISRGVQVLPRDTASLSTTPSESPRAQATSRLSTASCPTPKQIRRPDESKGVASRVGSLKARLPSCSSTYSVSEVQSRCSSKENILRASHSAVDITKVARRHRMSPFPLTSMDKAFITVLEMTPVLGTEIINYRDGMGRVLAQDVYAKDNLPPFPASVKDGYAVRAADGPGDRFIIGESQAGEQPTQTVMPGQVMRVTTGAPIPCGADAVVQVEDTELIRESDDGTEELEVRILVQARPGQDIRPIGHDIKRGECVLAKGTHMGPSEIGLLATVGVTEVEVNKFPVVAVMSTGNELLNPEDDLLPGKIRDSNRSTLLATIQEHGYPTINLGIVGDNPDDLLNALNEGISRADVIITSGGVSMGEKDYLKQVLDIDLHAQIHFGRVFMKPGLPTTFATLDIDGVRKIIFALPGNPVSAVVTCNLFVVPALRKMQGILDPRPTIIKARLSCDVKLDPRPEYHRCILTWHHQEPLPWAQSTGNQMSSRLMSMRSANGLLMLPPKTEQYVELHKGEVVDVMVIGRL | binds
